Patent US20190307899

Amino acid sequences for entries named in this document (tags omitted). Residues count along the entry.
UniProt Q9ET78, 331-405: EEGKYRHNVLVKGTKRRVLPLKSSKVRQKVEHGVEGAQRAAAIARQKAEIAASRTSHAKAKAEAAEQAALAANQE
UniProt Q9ET78, 1-565: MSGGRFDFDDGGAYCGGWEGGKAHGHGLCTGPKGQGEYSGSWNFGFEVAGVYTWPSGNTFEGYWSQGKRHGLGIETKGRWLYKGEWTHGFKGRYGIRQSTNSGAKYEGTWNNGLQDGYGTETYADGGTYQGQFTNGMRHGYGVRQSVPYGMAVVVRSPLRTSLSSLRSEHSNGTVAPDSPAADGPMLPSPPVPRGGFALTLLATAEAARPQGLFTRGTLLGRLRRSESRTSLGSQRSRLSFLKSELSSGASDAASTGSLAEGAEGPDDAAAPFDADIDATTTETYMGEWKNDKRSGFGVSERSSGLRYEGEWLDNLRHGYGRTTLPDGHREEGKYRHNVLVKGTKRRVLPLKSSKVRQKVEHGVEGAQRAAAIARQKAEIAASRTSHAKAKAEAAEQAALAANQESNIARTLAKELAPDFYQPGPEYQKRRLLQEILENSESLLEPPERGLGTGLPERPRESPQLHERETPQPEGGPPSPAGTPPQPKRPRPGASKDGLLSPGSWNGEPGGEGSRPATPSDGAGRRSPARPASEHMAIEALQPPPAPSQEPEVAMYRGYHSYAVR

What was measured:
[1] = target: GST-JP2(331-405) DNA-binding domain peptide (Mus musculus) (UniProt Q9ET78); assay: EMSA; settings: purified recombinant protein; protein details: GST
[2] = target: GST-JP2NT (junctophilin-2 residues 1-565) (Mus musculus) (UniProt Q9ET78); assay: EMSA; settings: purified recombinant protein; protein details: GST

Sequence: GGCCTTTCCTTCTCCTCTATAAATACCAGCTCTGGTATTTCA (double strand) [desmin MRE WT]
- binding result [1]: binds
- binding result [2]: binds

Sequence: GGGATCTGAGTCGCAGTATAAAAGAAGCTTTTCGGGCGTT (double strand) [cMyc promoter TATA box WT (TATAAA)]
- binding result [2]: binds

For at least one entry, the source does not settle the construct or the ends of the probe.
